# Results: PubChem BioAssay AID540276 (National Center for Advancing Translational Sciences (NCATS), 2011)
# Out of some 300,000 compounds screened, about 5,400 (1.8%) were called active. Inconclusive means that the source gave no clear call. Such entries were picked first, then a sample of the others. Calls follow the shape of the full dose curve; tested in HEK293 cells. Potencies beside an inconclusive call are fits to weak or partial responses and may not hold up.
# Experiment: qHTS for inhibitors of binding or entry into cells for Marburg Virus
# Conditions: Marburg virus pseudotyped entry inhibition, cell reporter; activity change, negative = inhibition: at 37.8 µM (top of the series) unless noted
# % is scaled to controls: 0 for no effect and ±100 for the full control effect; potency is read from the fitted curve at half-maximal effect.
Structure (SMILES),Potency,"activity change, negative = inhibition"
COc1cccc(/C=N/NC(=O)c2nc(-c3ccccc3)cc(-c3ccccc3)n2)c1O,"inconclusive: 3.16 µM [inhibitor, full curve, poor fit]",–
Nc1nonc1N1CCCCC1,"inconclusive: 1.3 µM [inhibitor, partial curve, poor fit]",–
COc1cc(Cl)c(C)cc1NC(C)C(=O)Nc1cc(C(F)(F)F)ccc1N1CCOCC1 (configuration not stated),"inconclusive: 11.2 µM [inhibitor, partial curve, poor fit]",–
CS(=O)(=O)c1ccccc1-c1nc(-c2cccc(Cl)c2)no1,"inconclusive: 35.5 µM [inhibitor, single point]",–
Cc1ccc(-n2c(C)cc(C(=O)CSc3n[nH]c(N)n3)c2C)cc1,–,inactive: -6.65%
Cc1cccc(Nc2cc(C)c3c(O)cccc3n2)c1C,"inconclusive: 25.9 µM [inhibitor, partial curve, poor fit]",–
CCCc1[nH]nc2c1C(c1ccc(OC)c(Cn3nc(C)c(Br)c3C)c1)C(C#N)=C(N)O2 (configuration not stated),"inconclusive: 0.708 µM [inhibitor, full curve, poor fit]",–
CCOc1ccc(NS(=O)(=O)c2ccc(C(=O)NCCCN3CCOCC3)cc2)cc1,"inconclusive: 0.316 µM [inhibitor, partial curve, poor fit]",–
COc1ccc(/C=N/N2C(=N)SCC2=O)cc1,"inconclusive: 28.2 µM [activator, single point]",–
c1ccc(-n2nnnc2Cc2nnnn2-c2ccccc2)cc1,–,inactive: 10.5% [at 46.1 µM]
CN(C)c1ccc(/C=C/[N+](=O)[O-])cc1,–,inactive: -15.2%
Cc1cc2c(c(=O)o1)C1(C(=O)N(CC(=O)O)c3ccccc31)C(C#N)=C(N)O2 (configuration not stated),"inconclusive: 12.6 µM [activator, single point]",–
O=C(Nc1ccc(-c2noc(CCc3ccccc3)n2)cc1)c1cccnc1,"inconclusive: 20 µM [inhibitor, partial curve, poor fit]",–
O=C1Nc2ccccc2/C1=C/c1ccccc1F,–,inactive: -7.62% [at 46.1 µM]
C/C(=N\N)c1c(-c2ccccc2)c2cc(Br)ccc2[nH]c1=O,"inconclusive: 35.5 µM [activator, partial curve, poor fit]",–
CCCN(CCC)CCNC(=O)CS(=O)Cc1nc(-c2ccc(C)cc2)oc1C (configuration not stated),"inconclusive: 14.6 µM [inhibitor, partial curve, poor fit]",–
COC(=O)[C@@]1(Cc2ccccc2)[C@@H]2C(=CC(=O)[C@H]2CC(=O)C(=O)N(C)C)CN1C(=O)c1ccccc1,active: 20.6 µM,–
Nc1ccc2c(c1)C(=NO)c1cc([N+](=O)[O-])ccc1-2,"inconclusive: 1 µM [inhibitor, single point]",–
Cc1cc(C)cc(NC(=O)[C@H](NC(=O)[C@@H]2Cc3ccccc3CN2)c2ccccc2)c1,active: 1.41 µM,–
O=C(N/N=C/c1cc([N+](=O)[O-])ccc1O)/C(=C\c1cccs1)NC(=O)c1ccccc1,"inconclusive: 7.94 µM [inhibitor, partial curve, poor fit]",–
Cc1ccc2c(CNCc3ccccc3)cc(=O)oc2c1,"inconclusive: 3.16 µM [inhibitor, partial curve, poor fit]",–

# 2 records drawn at random from the list so far, as already listed:
Structure (SMILES),Potency,"activity change, negative = inhibition"
Cc1cccc(Nc2cc(C)c3c(O)cccc3n2)c1C,"inconclusive: 25.9 µM [inhibitor, partial curve, poor fit]",–
COc1cccc(/C=N/NC(=O)c2nc(-c3ccccc3)cc(-c3ccccc3)n2)c1O,"inconclusive: 3.16 µM [inhibitor, full curve, poor fit]",–

# Following part.

Structure (SMILES),Potency,"activity change, negative = inhibition"
Cc1ccc(S(=O)(=O)N2CCOC23CCN(S(=O)(=O)c2c(C)cc(C)cc2C)CC3)cc1,"inconclusive: 35.5 µM [inhibitor, single point]",–
COc1cccc(NC(=O)c2cccc(N3C(=O)C4CCC(C)CC4C3=O)c2)c1 (configuration not stated),–,inactive: -1.71% [at 46.1 µM]
O=c1oc2c3c4c(cc2cc1-c1nc2ccccc2[nH]1)CCCN4CCC3,–,inactive: -0.372%
COc1cc(C2CC(=O)c3c([nH]c(C(=O)OCC4CCCCC4)c3C)C2)cc(OC)c1OC (configuration not stated),"inconclusive: 1.26 µM [inhibitor, full curve, poor fit]",–
Cc1ccc(-c2cc(-c3ccc4c(c3)OCO4)c(C#N)c(N)n2)o1,"inconclusive: 13 µM [inhibitor, partial curve]",–
O=C(NCC(c1ccco1)N1CCCC1)c1sc2cc(F)ccc2c1Cl (configuration not stated),"inconclusive: 14.1 µM [inhibitor, partial curve, poor fit]",–
COC1CCCN(C(=O)c2ccc3oc(Cc4ccc(Cl)cc4)nc3c2)C1 (configuration not stated),–,inactive: -3.76% [at 46.1 µM]
O=C(CSc1nc2ccccc2o1)N/N=C/c1ccccc1,"inconclusive: 8.91 µM [activator, partial curve, poor fit]",–
Cc1cc(Cl)ccc1OCC(=O)NNC(=O)c1ccco1,"inconclusive: 2.24 µM [inhibitor, single point]",–
Cc1ccc(-c2noc(-c3ccc(NCc4ccco4)c([N+](=O)[O-])c3)n2)cc1,–,inactive: 7.91% [at 46.1 µM]
CCS(=O)(=O)c1ccc(O)c(NC(=O)CCCC(=O)O)c1,–,inactive: -3.36%
O=C(c1ccccc1)N1CCN=C1SCc1ccc([N+](=O)[O-])cc1,"inconclusive: 22.4 µM [inhibitor, single point]",–
CCCCCn1c(=O)[nH]c2cc(C(=O)NCc3ccco3)ccc2c1=O,"inconclusive: 32.6 µM [inhibitor, single point]",–
Cc1cccc(Nc2nn3c(=O)c4ccccc4nc3s2)c1,"inconclusive: 0.116 µM [activator, full curve, poor fit]",–
CCC(=O)N1CCN(c2ccccc2NC(=O)COc2cc(C)ccc2C(C)C)CC1,"inconclusive: 4.61 µM [inhibitor, partial curve, poor fit]",–
Cc1ccc(C(C)C)c(OCC(=O)NNC(=O)Cc2ccc(S(=O)(=O)N3CCOCC3)s2)c1,"inconclusive: 1.26 µM [inhibitor, partial curve, poor fit]",–
CCn1c(SCC(=O)Nc2nc(C)cs2)nnc1C(C)NC(=O)c1ccccc1 (configuration not stated),"inconclusive: 7.08 µM [inhibitor, partial curve, poor fit]",–
CCN(CC)c1ccc(Nc2nc(N3CCOCC3)c3ccccc3n2)cc1,"inconclusive: 5.8 µM [inhibitor, full curve]",–
O=c1c2ccccc2nc(-c2ccccc2Cl)n1O,–,inactive: 10.1% [at 46.1 µM]
COc1ccc(N2CCN(S(=O)(=O)c3ccc(-n4cnnn4)c(C)c3)CC2)cc1,–,inactive: 14.1%
CCc1ccc(CNC(=O)COc2cc(=O)n(CC)c3ccccc23)cc1,–,inactive: 25.9% [at 46.1 µM]
